Experimental data published in patent US20100160332A1, “a2-Adrenoceptor Ligands” (The Provost, Fellows and Scholars of the College of the …, priority 2008, published 2010).
Some results were stated once for a whole list of compounds, not compound by compound.

Amino acid sequences for entries named in this document (tags omitted).
UniProt P08913, whole entry: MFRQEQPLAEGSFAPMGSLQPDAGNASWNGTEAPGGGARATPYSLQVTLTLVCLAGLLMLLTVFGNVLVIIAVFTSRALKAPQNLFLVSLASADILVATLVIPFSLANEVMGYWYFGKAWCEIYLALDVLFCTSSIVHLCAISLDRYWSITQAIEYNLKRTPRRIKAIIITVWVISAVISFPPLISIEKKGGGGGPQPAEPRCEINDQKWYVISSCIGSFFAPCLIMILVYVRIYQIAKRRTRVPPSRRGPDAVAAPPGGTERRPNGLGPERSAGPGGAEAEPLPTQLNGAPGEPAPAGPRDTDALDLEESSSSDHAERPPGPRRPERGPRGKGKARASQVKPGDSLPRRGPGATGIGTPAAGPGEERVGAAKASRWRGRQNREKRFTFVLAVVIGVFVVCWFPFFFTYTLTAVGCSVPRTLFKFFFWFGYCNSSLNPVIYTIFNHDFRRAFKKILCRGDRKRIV

Target: α2-ARs (Homo sapiens, UniProt P08913)
Test: [3H]RX821002 competition binding in human brain PFC membranes
Conditions: [3H]RX821002 1 nM, human postmortem PFC membranes, 25° C. 30 min

`CCN(C)c1ccc(NC(=N)N)cc1` [Compound 9b, N-[4-(ethyl-methyl-amino)-phenyl]-guanidine] was tested, and the pKi was greater than 7.
